Laboratory results reported in the supplement of paper PMC10849652.
The list shows a part of the results.

Amino acid sequences for entries named in this document (tags omitted). A change or cut given only in a name is not applied to a line headed by its entry.
UniProt O60925, whole entry, looked up: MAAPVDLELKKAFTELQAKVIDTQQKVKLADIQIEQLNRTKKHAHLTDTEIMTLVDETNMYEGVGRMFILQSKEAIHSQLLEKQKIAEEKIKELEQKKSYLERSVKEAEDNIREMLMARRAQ
UniProt Q8WUB8: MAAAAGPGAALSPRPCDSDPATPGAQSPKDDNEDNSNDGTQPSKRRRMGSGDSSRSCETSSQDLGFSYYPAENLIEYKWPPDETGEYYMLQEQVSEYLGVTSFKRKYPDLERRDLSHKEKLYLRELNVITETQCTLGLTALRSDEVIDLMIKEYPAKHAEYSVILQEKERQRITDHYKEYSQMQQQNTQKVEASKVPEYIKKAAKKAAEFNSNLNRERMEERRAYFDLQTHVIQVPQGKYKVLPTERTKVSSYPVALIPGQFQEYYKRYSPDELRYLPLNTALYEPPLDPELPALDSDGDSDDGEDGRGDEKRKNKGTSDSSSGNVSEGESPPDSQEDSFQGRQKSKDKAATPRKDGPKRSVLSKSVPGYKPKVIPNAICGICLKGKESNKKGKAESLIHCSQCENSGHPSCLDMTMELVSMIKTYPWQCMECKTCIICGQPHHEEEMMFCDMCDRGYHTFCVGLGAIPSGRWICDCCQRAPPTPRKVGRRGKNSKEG
UniProt Q92508: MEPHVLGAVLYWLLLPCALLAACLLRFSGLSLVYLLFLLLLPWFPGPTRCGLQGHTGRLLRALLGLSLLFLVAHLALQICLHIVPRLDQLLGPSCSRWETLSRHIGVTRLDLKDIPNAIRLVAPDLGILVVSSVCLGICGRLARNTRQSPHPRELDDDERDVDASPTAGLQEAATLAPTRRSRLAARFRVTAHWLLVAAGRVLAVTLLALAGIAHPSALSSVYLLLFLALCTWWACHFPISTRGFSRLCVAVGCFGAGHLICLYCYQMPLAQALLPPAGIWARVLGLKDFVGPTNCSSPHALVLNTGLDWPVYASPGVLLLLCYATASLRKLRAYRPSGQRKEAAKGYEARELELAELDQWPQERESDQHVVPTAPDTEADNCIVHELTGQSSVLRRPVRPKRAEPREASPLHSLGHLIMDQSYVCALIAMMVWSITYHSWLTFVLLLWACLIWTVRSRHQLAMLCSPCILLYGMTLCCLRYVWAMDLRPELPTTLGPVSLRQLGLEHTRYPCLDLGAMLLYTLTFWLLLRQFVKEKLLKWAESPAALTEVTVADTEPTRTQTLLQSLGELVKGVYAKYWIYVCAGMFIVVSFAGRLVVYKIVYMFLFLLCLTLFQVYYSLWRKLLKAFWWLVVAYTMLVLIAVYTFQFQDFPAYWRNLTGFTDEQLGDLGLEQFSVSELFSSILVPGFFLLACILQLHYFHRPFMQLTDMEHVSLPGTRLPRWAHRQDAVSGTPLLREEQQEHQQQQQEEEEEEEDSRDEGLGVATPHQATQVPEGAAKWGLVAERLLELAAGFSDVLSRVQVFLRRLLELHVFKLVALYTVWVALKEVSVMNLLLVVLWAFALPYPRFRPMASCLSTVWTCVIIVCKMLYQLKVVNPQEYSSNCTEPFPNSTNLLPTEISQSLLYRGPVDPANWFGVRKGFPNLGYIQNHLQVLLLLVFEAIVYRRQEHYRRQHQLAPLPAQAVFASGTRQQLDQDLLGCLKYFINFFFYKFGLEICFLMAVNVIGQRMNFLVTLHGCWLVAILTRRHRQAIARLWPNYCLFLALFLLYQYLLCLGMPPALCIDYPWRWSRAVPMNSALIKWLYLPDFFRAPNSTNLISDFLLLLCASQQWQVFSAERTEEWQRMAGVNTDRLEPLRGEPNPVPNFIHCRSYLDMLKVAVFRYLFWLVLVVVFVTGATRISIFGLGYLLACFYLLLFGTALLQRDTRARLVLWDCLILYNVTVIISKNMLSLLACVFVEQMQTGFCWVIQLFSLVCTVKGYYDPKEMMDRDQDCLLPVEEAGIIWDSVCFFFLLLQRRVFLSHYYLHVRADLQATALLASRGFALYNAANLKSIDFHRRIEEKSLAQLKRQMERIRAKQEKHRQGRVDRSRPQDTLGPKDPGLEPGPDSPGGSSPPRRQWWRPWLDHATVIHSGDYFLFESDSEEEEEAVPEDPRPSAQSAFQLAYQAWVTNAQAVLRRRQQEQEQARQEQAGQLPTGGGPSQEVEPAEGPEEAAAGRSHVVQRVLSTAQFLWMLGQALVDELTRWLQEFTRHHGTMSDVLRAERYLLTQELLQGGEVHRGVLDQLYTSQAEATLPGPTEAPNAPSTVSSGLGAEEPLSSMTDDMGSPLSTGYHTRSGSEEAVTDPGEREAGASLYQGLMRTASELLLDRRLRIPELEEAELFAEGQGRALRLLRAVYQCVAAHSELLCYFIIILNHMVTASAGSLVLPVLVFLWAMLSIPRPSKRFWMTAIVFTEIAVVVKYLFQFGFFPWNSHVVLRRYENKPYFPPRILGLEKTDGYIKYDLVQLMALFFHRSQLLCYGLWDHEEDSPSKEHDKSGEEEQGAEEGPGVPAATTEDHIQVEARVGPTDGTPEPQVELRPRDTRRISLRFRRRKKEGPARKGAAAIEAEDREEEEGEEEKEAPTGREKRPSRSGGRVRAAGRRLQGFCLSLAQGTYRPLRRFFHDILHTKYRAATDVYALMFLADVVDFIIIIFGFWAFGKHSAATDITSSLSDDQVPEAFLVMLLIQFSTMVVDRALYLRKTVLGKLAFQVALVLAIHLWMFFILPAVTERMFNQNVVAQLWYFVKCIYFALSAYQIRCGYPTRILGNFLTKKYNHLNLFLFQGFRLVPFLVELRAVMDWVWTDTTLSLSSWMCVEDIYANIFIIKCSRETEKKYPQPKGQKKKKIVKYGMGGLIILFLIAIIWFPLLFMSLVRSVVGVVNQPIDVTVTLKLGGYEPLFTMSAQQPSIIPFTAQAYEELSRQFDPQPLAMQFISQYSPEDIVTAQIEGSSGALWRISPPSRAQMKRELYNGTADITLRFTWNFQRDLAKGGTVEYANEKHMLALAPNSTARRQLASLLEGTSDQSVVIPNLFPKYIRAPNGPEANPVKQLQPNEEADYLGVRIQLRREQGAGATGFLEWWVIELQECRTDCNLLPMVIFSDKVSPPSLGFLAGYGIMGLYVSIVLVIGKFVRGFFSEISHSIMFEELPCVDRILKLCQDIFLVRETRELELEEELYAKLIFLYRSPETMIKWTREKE
UniProt O00625: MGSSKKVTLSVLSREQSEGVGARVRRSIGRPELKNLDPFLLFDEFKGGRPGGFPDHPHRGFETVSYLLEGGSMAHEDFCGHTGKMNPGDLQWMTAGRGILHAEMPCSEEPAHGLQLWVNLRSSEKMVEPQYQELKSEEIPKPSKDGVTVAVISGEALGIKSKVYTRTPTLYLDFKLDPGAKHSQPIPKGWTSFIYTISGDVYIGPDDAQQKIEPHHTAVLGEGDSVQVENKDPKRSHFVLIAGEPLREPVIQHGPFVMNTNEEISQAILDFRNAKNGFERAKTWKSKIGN
UniProt Q9Y237, whole entry, looked up: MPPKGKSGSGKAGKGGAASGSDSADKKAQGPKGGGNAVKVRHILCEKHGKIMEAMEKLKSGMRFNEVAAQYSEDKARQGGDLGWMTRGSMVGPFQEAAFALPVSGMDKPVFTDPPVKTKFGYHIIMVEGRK
UniProt Q8NHP8: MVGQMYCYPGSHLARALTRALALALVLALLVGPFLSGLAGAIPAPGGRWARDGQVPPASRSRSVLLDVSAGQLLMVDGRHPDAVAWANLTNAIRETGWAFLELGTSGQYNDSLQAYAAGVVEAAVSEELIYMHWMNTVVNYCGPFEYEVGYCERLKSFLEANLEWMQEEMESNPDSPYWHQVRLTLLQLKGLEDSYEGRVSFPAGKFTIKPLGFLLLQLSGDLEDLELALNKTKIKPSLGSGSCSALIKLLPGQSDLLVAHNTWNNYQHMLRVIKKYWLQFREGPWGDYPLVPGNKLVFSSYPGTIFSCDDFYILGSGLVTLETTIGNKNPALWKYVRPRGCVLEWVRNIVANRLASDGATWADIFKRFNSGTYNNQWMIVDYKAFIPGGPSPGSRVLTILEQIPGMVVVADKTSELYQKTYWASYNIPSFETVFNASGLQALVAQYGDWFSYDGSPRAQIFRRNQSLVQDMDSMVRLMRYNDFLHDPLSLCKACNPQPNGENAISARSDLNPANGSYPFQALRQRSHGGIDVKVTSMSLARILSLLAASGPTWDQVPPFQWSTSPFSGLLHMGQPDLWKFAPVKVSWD
UniProt Q9NQP4, whole entry, looked up: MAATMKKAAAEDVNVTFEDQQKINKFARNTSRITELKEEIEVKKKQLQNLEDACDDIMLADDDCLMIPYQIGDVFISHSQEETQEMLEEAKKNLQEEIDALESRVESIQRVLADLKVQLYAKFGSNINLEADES
UniProt Q5JRX3: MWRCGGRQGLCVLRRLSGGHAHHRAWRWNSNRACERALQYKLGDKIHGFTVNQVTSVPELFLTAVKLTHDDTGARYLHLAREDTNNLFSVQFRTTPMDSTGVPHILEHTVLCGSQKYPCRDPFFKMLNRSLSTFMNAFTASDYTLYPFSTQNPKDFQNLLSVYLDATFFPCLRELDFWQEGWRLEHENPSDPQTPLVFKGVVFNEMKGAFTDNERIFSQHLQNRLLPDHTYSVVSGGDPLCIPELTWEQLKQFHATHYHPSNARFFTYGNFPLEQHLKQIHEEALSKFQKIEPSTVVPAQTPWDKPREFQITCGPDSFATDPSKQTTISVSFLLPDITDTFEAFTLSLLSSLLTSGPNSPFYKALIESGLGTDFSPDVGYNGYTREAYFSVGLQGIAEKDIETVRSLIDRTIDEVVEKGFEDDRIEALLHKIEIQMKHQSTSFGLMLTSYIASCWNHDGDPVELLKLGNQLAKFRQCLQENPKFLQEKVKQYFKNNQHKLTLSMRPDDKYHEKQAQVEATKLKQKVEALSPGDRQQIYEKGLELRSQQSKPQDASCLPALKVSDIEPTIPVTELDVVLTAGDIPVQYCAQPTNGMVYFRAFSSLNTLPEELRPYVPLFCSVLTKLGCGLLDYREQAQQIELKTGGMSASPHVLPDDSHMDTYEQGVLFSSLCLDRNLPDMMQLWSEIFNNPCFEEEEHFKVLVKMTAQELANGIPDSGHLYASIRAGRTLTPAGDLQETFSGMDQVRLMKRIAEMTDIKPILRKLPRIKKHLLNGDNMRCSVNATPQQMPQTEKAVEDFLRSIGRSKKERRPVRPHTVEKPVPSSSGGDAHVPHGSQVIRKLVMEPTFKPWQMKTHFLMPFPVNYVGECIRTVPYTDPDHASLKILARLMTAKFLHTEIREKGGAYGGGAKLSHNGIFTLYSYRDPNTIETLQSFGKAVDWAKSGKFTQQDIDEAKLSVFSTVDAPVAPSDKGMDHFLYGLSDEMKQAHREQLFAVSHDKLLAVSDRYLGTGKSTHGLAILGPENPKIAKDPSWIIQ
UniProt P16885: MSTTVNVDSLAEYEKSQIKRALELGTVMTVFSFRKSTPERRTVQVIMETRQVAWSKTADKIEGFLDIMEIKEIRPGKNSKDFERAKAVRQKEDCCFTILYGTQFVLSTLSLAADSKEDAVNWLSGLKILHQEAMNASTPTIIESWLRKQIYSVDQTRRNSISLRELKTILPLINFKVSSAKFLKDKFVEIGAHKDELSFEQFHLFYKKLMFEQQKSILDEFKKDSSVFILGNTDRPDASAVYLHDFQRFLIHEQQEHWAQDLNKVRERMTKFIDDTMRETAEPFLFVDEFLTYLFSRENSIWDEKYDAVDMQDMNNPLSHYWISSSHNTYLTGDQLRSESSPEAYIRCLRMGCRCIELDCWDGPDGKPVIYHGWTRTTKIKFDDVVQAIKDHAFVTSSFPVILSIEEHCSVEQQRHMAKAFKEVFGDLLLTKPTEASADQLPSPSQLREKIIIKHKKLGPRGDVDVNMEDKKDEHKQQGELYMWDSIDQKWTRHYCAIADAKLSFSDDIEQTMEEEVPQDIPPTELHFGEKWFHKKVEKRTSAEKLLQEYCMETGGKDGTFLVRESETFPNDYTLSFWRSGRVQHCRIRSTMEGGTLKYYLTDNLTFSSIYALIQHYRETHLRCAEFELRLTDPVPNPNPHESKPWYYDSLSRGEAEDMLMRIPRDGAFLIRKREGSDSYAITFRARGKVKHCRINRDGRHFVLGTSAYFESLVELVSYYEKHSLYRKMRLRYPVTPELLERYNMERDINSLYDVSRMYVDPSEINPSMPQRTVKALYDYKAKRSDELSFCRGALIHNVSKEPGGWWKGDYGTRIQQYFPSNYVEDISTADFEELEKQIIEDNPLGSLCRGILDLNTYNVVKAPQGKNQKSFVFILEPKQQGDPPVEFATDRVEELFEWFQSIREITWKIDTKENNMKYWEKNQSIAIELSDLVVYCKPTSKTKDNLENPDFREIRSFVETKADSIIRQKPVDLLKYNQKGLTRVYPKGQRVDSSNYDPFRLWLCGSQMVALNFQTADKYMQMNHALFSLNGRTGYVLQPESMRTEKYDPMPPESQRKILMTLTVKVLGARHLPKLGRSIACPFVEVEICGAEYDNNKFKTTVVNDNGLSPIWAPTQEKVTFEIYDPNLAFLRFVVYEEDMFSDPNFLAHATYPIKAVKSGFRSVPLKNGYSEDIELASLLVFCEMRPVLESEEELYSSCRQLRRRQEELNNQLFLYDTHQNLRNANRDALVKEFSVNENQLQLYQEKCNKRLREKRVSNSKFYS

How the values were obtained:
Test in all cases: log2 fold change, soluble protein after heating vs DMSO (PISA); higher = thermal stabilisation; K562 cells, 10 uM, 30 min; active = over 0.2 and 3.5 SD of the protein, either way, in both replicates (recomputed)
erlotinib = compound: C#Cc1cccc(Nc2ncnc3cc(OCCOC)c(OCCOC)cc23)c1 [erlotinib]
How it was run: (§1)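 Quantification of soluble protein used TMTpro 16plex LC-MS/MS, with channel sums equalised. Samples were the supernatant after 21,000xg for 90 min of pooled aliquots from K562 cells (2×10^6 cells/mL) treated with 10 μM compound for 30 min, heated for 3 min over 48°C-58°C, and extracted in PBS with 0.5% NP-40 at 4°C. Values, from duplicates, describe thermal stability against control samples on a log2 fold-change scale.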

[1] = compound: C/C(=N\NC(=O)C1=CC(=CC=C1)S(=O)(=O)N2CCOCC2)/C3=C(C=CC(=C3)Cl)O
How it was run: as §1

[2] = compound: C1=CC(=C(C=C1Cl)C2=NC3=NC=CN=C3C(=N2)NC4=CC=NC=C4)F
How it was run: as §1

[3] = compound: C1=CC(=CC=C1C2=NC3=C(N2)C=C(C=C3)C(=O)N)OC4=CC=C(C=C4)Cl
How it was run: as §1

[4] = compound: C1=CC2=C(C=CC(=C2)/C=C\3/C(=O)NC(=NCC4=CC=CS4)S3)N=C1
How it was run: as §1

[5] = compound: C1=CC2=NC=CN=C2C=C1/C=C/3\C(=O)NC(=O)S3
How it was run: as §1

[6] = compound: C1=CC=C(C=C1)C2=NC(=C(N2)C3=CC=NC=C3)C4=CC(=C(C=C4)Cl)O
How it was run: as §1

[7] = compound: C1=CC=C2C(=C1)C3=NNC4=CC=CC(=C43)C2=O
How it was run: as §1

[8] = compound: C1CCN(C1)C(=O)NC2=CC=CC(=C2)NC3=NC=C(C(=N3)NCCC4=CN=CN4)Br
How it was run: as §1

[9] = compound: C1CN(CCC1(CC2=CC=C(C=C2)Cl)N)C3=NC=NC4=C3C=CN4
How it was run: as §1

| Target | log2 fold change (erlotinib) | log2 fold change [1] | log2 fold change [2] | log2 fold change [3] | log2 fold change [4] | log2 fold change [5] | log2 fold change [6] | log2 fold change [7] | log2 fold change [8] | log2 fold change [9] |
| --- | --- | --- | --- | --- | --- | --- | --- | --- | --- | --- |
| PHKA2 (UniProt P46019) | inactive: -0.077 | inactive: 0.029 | inactive: 0.041 | inactive: -0.008 | inactive: -0.011 | inactive: 0.041 | inactive: -0.028 | inactive: -0.026 | inactive: 0.004 | inactive: 0.004 |
| PEX19 (UniProt P40855) | inactive: -0.002 | inactive: -0.028 | inactive: 0.02 | inactive: 0.002 | inactive: -0.046 | inactive: 0.027 | inactive: 0.023 | inactive: -0.004 | inactive: -0.022 | inactive: 0.034 |
| PGM2L1 (UniProt Q6PCE3) | inactive: 0.043 | inactive: 0 | inactive: 0.031 | inactive: 0.07 | inactive: 0.004 | inactive: -0.023 | inactive: 0 | inactive: -0.025 | inactive: 0.024 | inactive: 0.025 |
| PFDN1 (UniProt O60925) | inactive: -0.018 | inactive: 0.012 | inactive: 0.263 | inactive: 0.07 | inactive: 0.056 | inactive: 0.063 | inactive: 0.137 | inactive: 0.047 | inactive: -0.091 | inactive: -0.057 |
| PHF10 (UniProt Q8WUB8) | inactive: -0.124 | inactive: -0.086 | inactive: -0.051 | inactive: 0.155 | inactive: 0.057 | inactive: 0.16 | inactive: -0.093 | inactive: -0.254 | inactive: 0.208 | inactive: -0.069 |
| PLA2G15 (UniProt Q8NCC3) | inactive: 0.064 | inactive: 0.004 | inactive: 0.038 | inactive: -0.02 | inactive: 0.026 | inactive: 0.035 | inactive: -0.007 | inactive: 0.021 | inactive: 0.01 | inactive: 0.052 |
| PIEZO1 (UniProt Q92508) | inactive: -0.017 | inactive: -0.035 | inactive: 0.004 | inactive: 0.02 | inactive: 0.056 | inactive: 0.018 | inactive: 0.007 | inactive: -0.032 | inactive: 0.017 | inactive: 0.07 |
| PIR (UniProt O00625) | inactive: -0.027 | inactive: -0.058 | inactive: 0.025 | active: 0.464 | inactive: 0.111 | inactive: 0.031 | inactive: -0.027 | active: 0.225 | inactive: -0.053 | inactive: -0.002 |
| PI4K2A (UniProt Q9BTU6) | inactive: -0.037 | inactive: -0.01 | inactive: 0.01 | inactive: 0.019 | inactive: 0.021 | inactive: 0.071 | inactive: -0.029 | inactive: 0.01 | inactive: -0.002 | inactive: 0.046 |
| PHKA1 (UniProt P46020) | inactive: -0.028 | inactive: -0.101 | inactive: -0.051 | inactive: 0.003 | inactive: 0.057 | inactive: 0.024 | inactive: 0.152 | inactive: -0.095 | inactive: -0.105 | inactive: -0.026 |
| PLCG1 isoform 2 (UniProt P19174) | inactive: 0.052 | inactive: -0.054 | inactive: -0.09 | inactive: 0.067 | inactive: 0.119 | inactive: 0.029 | inactive: 0.006 | inactive: 0.017 | inactive: 0.052 | inactive: -0.06 |
| PIN4 isoform 2 (UniProt Q9Y237) | inactive: -0.02 | inactive: 0.078 | inactive: 0.024 | inactive: 0.005 | inactive: -0.034 | inactive: 0.056 | inactive: -0.004 | inactive: 0.054 | inactive: -0.003 | inactive: -0.016 |
| PEX6 (UniProt Q13608) | inactive: 0.026 | inactive: 0.034 | inactive: -0.013 | inactive: 0.04 | inactive: 0.035 | inactive: 0.024 | inactive: -0.036 | inactive: 0 | inactive: -0.02 | inactive: 0.093 |
| PLCH1 (UniProt Q4KWH8) | inactive: 0.008 | inactive: -0.102 | inactive: 0.01 | inactive: 0.046 | inactive: 0.124 | inactive: 0.07 | inactive: -0.076 | inactive: 0.068 | inactive: 0.009 | inactive: -0.06 |
| PLBD2 (UniProt Q8NHP8) | inactive: -0.022 | inactive: -0.048 | inactive: 0.026 | inactive: 0.01 | inactive: 0.009 | inactive: 0.037 | inactive: 0.01 | inactive: -0.02 | inactive: -0.018 | inactive: 0.018 |
| PINX1 (UniProt Q96BK5) | inactive: -0.115 | inactive: -0.288 | inactive: -0.673 | inactive: -0.08 | inactive: -0.138 | inactive: 0.134 | inactive: -0.095 | inactive: -0.112 | inactive: 0.214 | inactive: 0.02 |
| PFDN4 (UniProt Q9NQP4) | inactive: -0.011 | inactive: -0.093 | inactive: 0.035 | inactive: 0.019 | inactive: -0.004 | inactive: 0.015 | inactive: 0.071 | inactive: 0.089 | inactive: 0.133 | inactive: 0.082 |
| PITRM1 isoform 2 (UniProt Q5JRX3) | inactive: -0.004 | inactive: -0.008 | inactive: 0.012 | inactive: 0.005 | inactive: 0.118 | inactive: 0.007 | inactive: 0.041 | inactive: 0.03 | inactive: 0.023 | inactive: 0.153 |
| PISD (UniProt Q9UG56) | inactive: -0.021 | inactive: -0.055 | inactive: 0.026 | inactive: 0.089 | inactive: 0.034 | inactive: 0.023 | inactive: 0.02 | inactive: 0.058 | inactive: 0.009 | inactive: -0.004 |
| PIGG (UniProt Q5H8A4) | inactive: -0.002 | inactive: 0.016 | inactive: -0.009 | inactive: 0.027 | inactive: 0.023 | inactive: 0.014 | inactive: -0.013 | inactive: -0.003 | inactive: -0.016 | inactive: 0.067 |
| PIK3C3 (UniProt Q8NEB9) | inactive: -0.005 | inactive: -0.004 | inactive: -0.157 | inactive: -0.005 | inactive: 0.011 | inactive: 0.087 | inactive: -0.007 | inactive: 0.048 | inactive: -0.024 | inactive: 0.06 |
| PGAM5 (UniProt Q96HS1) | inactive: 0.009 | inactive: -0.041 | inactive: -0.098 | inactive: -0.025 | inactive: -0.018 | inactive: 0.012 | inactive: -0.071 | inactive: 0.198 | inactive: 0.032 | inactive: -0.077 |
| PLCD1 isoform 2 (UniProt P51178) | inactive: 0.01 | inactive: 0.044 | inactive: -0.031 | inactive: 0.01 | inactive: 0.117 | inactive: -0.01 | inactive: 0.017 | inactive: 0.007 | inactive: 0.022 | inactive: -0.053 |
| PGK1 (UniProt P00558) | inactive: -0.028 | inactive: 0 | inactive: 0.065 | inactive: 0.007 | inactive: 0.01 | inactive: -0.018 | inactive: 0.009 | inactive: 0.02 | inactive: 0.018 | inactive: 0.029 |
| PKN2 (UniProt Q16513) | inactive: 0.067 | inactive: 0.073 | inactive: -0.019 | inactive: -0.075 | inactive: 0.076 | inactive: -0.075 | inactive: 0.07 | inactive: -0.031 | inactive: -0.033 | inactive: -0.209 |
| PEX5 isoform 4 (UniProt P50542) | inactive: -0.133 | inactive: -0.143 | inactive: -0.036 | inactive: 0.076 | inactive: 0.048 |  | inactive: 0.016 | inactive: -0.082 | inactive: 0.097 | inactive: -0.078 |
| PLCG2 (UniProt P16885) | inactive: 0.059 | inactive: -0.357 |  | inactive: -0.075 | inactive: 0.288 | inactive: 0.038 |  | inactive: -0.085 |  |  |
| PFKFB4 (UniProt Q16877) | inactive: -0.003 | inactive: 0.028 | inactive: -0.023 | inactive: -0.002 | inactive: -0.029 | inactive: 0.044 | inactive: -0.027 | inactive: -0.023 | inactive: 0.028 | inactive: 0.034 |

Looked up one by one from above, two records:

| Target | log2 fold change (erlotinib) | log2 fold change [1] | log2 fold change [2] | log2 fold change [3] | log2 fold change [4] | log2 fold change [5] | log2 fold change [6] | log2 fold change [7] | log2 fold change [8] | log2 fold change [9] |
| --- | --- | --- | --- | --- | --- | --- | --- | --- | --- | --- |
| PEX5 isoform 4 (UniProt P50542) | inactive: -0.133 | inactive: -0.143 | inactive: -0.036 | inactive: 0.076 | inactive: 0.048 |  | inactive: 0.016 | inactive: -0.082 | inactive: 0.097 | inactive: -0.078 |
| PGM2L1 (UniProt Q6PCE3) | inactive: 0.043 | inactive: 0 | inactive: 0.031 | inactive: 0.07 | inactive: 0.004 | inactive: -0.023 | inactive: 0 | inactive: -0.025 | inactive: 0.024 | inactive: 0.025 |
